Data from PMC7435877 (Molecules, 2020).

Test system: A549
Test: In vitro antiproliferative activity, SRB assay, A549
Format: cell-based
Settings: Homo sapiens, A549, 72 h, read-out: Antiproliferative activity IC50, A549

SMILES: COc1cc2c(c(OC)c1OC)-c1ccc(OC)c(=O)cc1[C@@H](NC(C)=O)CC2 [Compound 1, Colchicine, reference compound]
- IC50: 45.2 ± 18.6 nM
